The results in this text go back to patent publication US20230235004A1.

The assay addresses cyno MAdCAM protein (cyno). Kind of assay: ELISA. On the technique in general: In an ELISA, binding on a coated surface is turned into a signal by an enzyme label.

Where a chain is given by its changes, count along the chain named. Results are given in words; binding and its absence hold for the method and conditions named. A result given as binding can be weak or reduced; the word gives no strength.

B1: MAdCAM antibody Table 1 clone 51 (scFv)
scFv: EVQLLESGGGLVQPGGSLRLSCAASGFTFNNYGMNWVRQAPGKGLEWVSRINSDGSSTSYADSVKGRFTISRDNSKNTLYLQMNSLRAEDTAVYYCARGAYYYYYMDVWGQGTLVTVSSGGGGSGGGGSGGGGSGGGGSEIVMTQSPATLSVSPGERATLSCRASQSVSGSYLAWYQQKPGQAPRLLIYATSSRASGIPARFSGSGSGTEFTLTISSLQSEDFAVYYCQQYYSGLTFGQGTKVEIK
B1: the binding result is on record as “binds”.

B2: MAdCAM Antibody Table 2 clone 54 (antibody, V domains shown)
VH: QVQLVQSGAEVKKPGSSVKVSCKASGGTLSRYGVSWVRQAPGQGLEWMGGIIPIFGTTNYAQKFQGRVTITADESTSTAYMELSSLRSEDTAVYYCARDRVYYDSSGYPTWYFDLWGRGTLVTVSS
VL: EIVMTQSPATLSVSPGERATLSCRASQSVSSSYLAWYQQKPGQAPRLLIYGASTRATGIPARFSGSGSGTEFTLTISSLQSEDFAVYYCQQYGSSPITFGQGTKVEIK
Regarding B2, the binding entry is reported as “binds”.

B3: MAdCAM antibody Table 1 clone 57 (scFv)
scFv: QVQLVQSGAEVKKPGASVKVSCKASGYTFTSYYMHWVRQAPGQGLEWMGIINPSGGSTSYAQKFQGRVTMTRDTSTSTVYMELSSLRSEDTAVYYCARDSVAGTGGRYYGMDVWGQGTLVTVSSGGGGSGGGGSGGGGSGGGGSDIQMTQSPSSLSASVGDRVTITCRASQGISNYFAWYQQKPGKAPKLLIYAASSLQGGVPSRFSGSGSGTDFTLTISSLQPEDFATYYCQQSYSLPYTFGQGTKLEIK
Take B3: the binding entry is on record as “binds”.

B4: MAdCAM Antibody Table 2 clone 2 (antibody, V domains shown)
VH: QVQLVQSGAEVKKPGASVKVSCKASGYPFIGYYLHWVRQAPGQGLEWMGIINPSGGSTSYAQKFQGRVTMTRDTSTSTVYMELSSLRSEDTAVYYCAREGRLSYGMDAWGQGTLVTVSS
VL: DIQMTQSPSSLSASVGDRVTITCRASQSISSYLAWYQQKPGKAPKLLIYGASTLESGVPSRFSGSGSGTDFTLTISSLQPEDFATYYCQQTWGPPFTFGQGTKLEIK
Turning to B4, the binding entry was “binds”.

B5: MAdCAM Antibody Table 2 clone 34 (antibody, V domains shown)
VH: QVQLVQSGAEVKKPGASVKVSCKASGYTFTGYYIHWVRQAPGQGLEWMGWMNPNSGNTGYAQKFQGRVTMTRDTSTSTVYMELSSLRSEDTAVYYCARDPGFLGYCSGGSCYDGWFDPWGQGTLVTVSS
VL: B4 VL with A34H, G50A, T53S, E55Q, T91S, W92Y, G93T, P94A, F96Y
Take B5: the binding result is listed as “binds”.

B6: MAdCAM Antibody Table 2 clone 3 (antibody, V domains shown)
VH: B4 VH with Y32Q
VL: B4 VL
Take B6: the binding entry is reported as “binds”.

B7: MAdCAM Antibody Table 2 clone 43 (antibody, V domains shown)
VH: QVQLVQSGAEVKKPGASVKVSCKASGYTFTSYGISWVRQAPGQGLEWMGWMHPKSGDTGLTQKFQGRVTMTRDTSTSTVYMELSSLRSEDTAVYYCARDTPYYYYGMDVWGQGTTVTVSS
VL: B4 VL with Y32W, G50A, T53S, E55Q, T91S, W92Y, G93S, P94V, F96I, L104V
Turning to B7, the binding entry was “binds”.

B8: MAdCAM antibody Table 1 clone 50 (scFv)
scFv: QVQLVQSGAEVKKPGASVKVSCKASGYTFTSYDINWVRQAPGQGLEWMGWINPNSGTTGYAQKFQGRVTMTRDTSTSTVYMELSSLRSEDTAVYYCARSPYYYYGMDVWGQGTTVTVSSGGGGSGGGGSGGGGSGGGGSDIQMTQSPSSLSASVGDRVTITCRASHFISRWVAWYQQKPGKAPKLLIYAASTLQSGVPSRFSGSGSGTDFTLTISSLQPEDFATYYCQQSYSGISFGPGTKVDIK
In the case of B8, the binding entry is “binds”.

B9: MAdCAM antibody Table 1 clone 43 (scFv)
scFv: EVQLLESGGGLVQPGGSLRLSCAASGFTFDDFAMHWVRQAPGKGLEWVSGISGNGDSRYYADSVKGRFTISRDNSKNTLYLQMNSLRAEDTAVYYCARDASYGGNYGMDVWGQGTTVTVSSGGGGSGGGGSGGGGSGGGGSDIQMTQSPSSLSASVGDRVTITCQASQDIRNYLNWYQQKPGKAPKLLIYKASTLESGVPSRFSGSGSGTDFTLTISSLQPEDFATYYCQQANSFPLTFGPGTKVDIK
As to B9, the binding entry is on record as “binds”.

B10: MAdCAM antibody Table 1 clone 42 (scFv)
scFv: QVQLVQSGAEVKKPGSSVKVSCKASGGTLSRYGVSWVRQAPGQGLEWMGGIIPIFGTTNYAQKFQGRVTITADESTSTAYMELSSLRSEDTAVYYCARDRVYYDSSGYPTWYFDLWGRGTLVTVSSGGGGSGGGGSGGGGSGGGGSEIVMTQSPATLSVSPGERATLSCRASQSVSSSYLAWYQQKPGQAPRLLIYGASTRATGIPARFSGSGSGTEFTLTISSLQSEDFAVYYCQQYGSSPITFGQGTKVEIK
With B10, the binding result is “binds”.

B11: MAdCAM antibody Table 1 clone 48 (scFv)
scFv: EVQLLESGGGLVQPGGSLRLSCAASGFTFSDHGMHWVRQAPGKGLEWVSVIYGGESTYYADSVKGRFTISRDNSKNTLYLQMNSLRAEDTAVYYCARDPAVAGGGIFDYWGQGTLVTVSSGGGGSGGGGSGGGGSGGGGSDIQMTQSPSSLSASVGDRVTITCRASQGISNYLAWYQQKPGKAPKLLIYDASNLETGVPSRFSGSGSGTDFTLTISSLQPEDFATYYCQQSYSTCYTFGQGTKLEIK
As to B11, the binding result was “binds”.

B12: MAdCAM antibody Table 1 clone 49 (scFv)
scFv: QVQLVQSGAEVKKPGASVKVSCKASGDTFTGYYIHWVRQAPGQGLEWMGWINPNSGGTNYAQKFQGRVTMTRDTSTSTVYMELSSLRSEDTAVYYCARSGLWLGSYYGMDVWGQGTLVTVSSGGGGSGGGGSGGGGSGGGGSDIQMTQSPSSLSASVGDRVTITCRASQTISIWLAWYQQKPGKAPKLLIYDASTLQSGVPSRFSGSGSGTDFTLTISSLQPEDFATYYCQQYSSYPLTFGQGTKVEIK
For the molecule B12, the binding entry was “binds”.

B13: MAdCAM Antibody Table 2 clone 12 (antibody, V domains shown)
VH: QVQLVQSGAEVKKPGASVKVSCKASGYTLTTWYMYWVRQAPGQGLEWMGWINPNRGATNYAQKFQGRVTMTRDTSTSTVYMELSSLRSEDTAVYYCAKGDLWGAMDVWGQGTLVTVSS
VL: DIQMTQSPSSLSASVGDRVTITCRASDNIGSWLAWYQQKPGKAPKLLIYAASSLQSGVPSRFSGSGSGTDFTLTISSLQPEDFATYYCQQGYSTPPTFGQGTKVEIK
Turning to B13, the binding entry is given as “binds”.

B14: MAdCAM Antibody Table 2 clone 39 (antibody, V domains shown)
VH: QVQLVQSGAEVKKPGASVKVSCKASGYTFTSYYMHWVRQAPGQGLEWMAWMNPNSGNTGYAQKFQGRVTMTRDTSTSTVYMELSSLRSEDTAVYYCARDYDFWSGSLGYWGQGTLVTVSS
VL: B13 VL with D27Q, N28G, G30S, S31N, W32Y, G91S, P96W
As for B14, the binding entry is recorded as “binds”.

B15: MAdCAM antibody Table 1 clone 44 (scFv)
scFv: EVQLVESGGGLVKPGGSLRLSCAASGFTFSSYWMSWVRQAPGKGLEWVSAIGTGGGTYYAAPVKGRFTISRDDSKNTLYLQMNSLKTEDTAVYYCAREWLVPYYGMDVWGQGTTVTVSSGGGGSGGGGSGGGGSGGGGSDIQMTQSPSSLSASVGDRVTITCRASQSISRWLAWYQQKPGKAPKLLIYGASNLQSGVPSRFSGSGSGTDFTLTISSLQPEDFATYYCQQSYSTPWTFGQGTKVEIK
Take B15: the binding entry is reported as “binds”.

B16: MAdCAM antibody Table 1 clone 56 (scFv)
scFv: EVQLLESGGGLVQPGGSLRLSCAASGFTFDDYAMHWVRQAPGKGLEWVSAISGGGEDTYYADSVKGRFTISRDNSKNTLYLQMNSLRAEDTAVYYCARDASYGGNYGMDVWGQGTTVTVSSGGGGSGGGGSGGGGSGGGGSDIQMTQSPSSLSASVGDRVTITCQASQDIRNYLNWYQQKPGKAPKLLIYKASSLESGVPSRFSGSGSGTDFTLTISSLQPEDFATYYCQQANSYPVTFGGGTKVEIK
Consider B16, for which the binding entry is on record as “binds”.

B17: MAdCAM antibody Table 1 clone 53 (scFv)
scFv: QVQLVQSGAEVKKPGASVKVSCKASGYTFTSYDINWVRQAPGQGLEWMGWMNPNSGNTGYAQKFQGRVTMTRDTSTSTVYMELSSLRSEDTAVYYCAKDSDYSNLLWDYWGQGTLVTVSSGGGGSGGGGSGGGGSGGGGSDIQMTQSPSSLSASVGDRVTITCRASQDITNDLGWYQQKPGKAPKLLIYQASSLESGVPSRFSGSGSGTDFTLTISSLQPEDFATYYCQQSYTIPLTFGQGTKVEIK
On to B17, for which the binding result was “binds”.

B18: MAdCAM antibody Table 1 clone 55 (scFv)
scFv: QVQLVQSGAEVKKPGASVKVSCKASGYTFTSYYMHWVRQAPGQGLEWMGIIDPSGGSTSYAQKFQGRVTMTRDTSTSTVYMELSSLRSEDTAVYYCAREEWSSGGVGYFDYWGQGTLVTVSSGGGGSGGGGSGGGGSGGGGSDIQMTQSPSSLSASVGDRVTITCRASQGISSYLAWYQQKPGKAPKLLIYATSSLQTGVPSRFSGSGSGTDFTLTISSLQPEDFATYYCQQTYSIPITFGQGTRLEIK
Take B18: the binding entry was “binds”.

B19: MAdCAM antibody Table 1 clone 54 (scFv)
scFv: EVQLLESGGGLVQPGGSLRLSCAASGFTFGDYAMSWVRQAPGKGLEWVAVVSYDGTNKYYADSVKGRFTISRDNSKNTLYLQMNSLRAEDTAVYYCAKDICSSTSCYFDLWGRGTLVTVSSGGGGSGGGGSGGGGSGGGGSDIQMTQSPSSLSASVGDRVTITCRASQNINNYVNWYQQKPGKAPKLLIYDASNLETGVPSRFSGSGSGTDFTLTISSLQPEDFATYYCQQANSFPPTFGQGTRLEIK
With B19, the binding entry is “binds”.

B20: MAdCAM antibody Table 1 clone 52 (scFv)
scFv: EVQLLESGGGLVQPGGSLRLSCAASGFTFSNSDMNWVRQAPGKGLEWVAHIWNDGSQKYYADSVKGRFTISRDNSKNTLYLQMNSLRAEDTAVYYCARDRTDPGYSSAMDVWGQGTTVTVSSGGGGSGGGGSGGGGSGGGGSDIQMTQSPSSLSASVGDRVTITCRASQDIRNYLGWYQQKPGKAPKLLIYDASSLETGVPSRFSGSGSGTDFTLTISSLQPEDFATYYCQQATSLPLTFGGGTKVEIK
As for B20, the binding result is listed as “binds”.

B21: MAdCAM antibody Table 1 clone 58 (scFv)
scFv: QVQLVQSGAEVKKPGASVKVSCKASGYTFTGYYMHWVRQAPGQGLEWMGIINPSGGNTKYAQKFQGRVTMTRDTSTSTVYMELSSLRSEDTAVYYCTTADYYYYMDVWGKGTTVTVSSGGGGSGGGGSGGGGSGGGGSDIQMTQSPSSLSASVGDRVTITCRASQGISNYLAWYQQKPGKAPKLLIYAASSLQSGVPSRFSGSGSGTDFTLTISSLQPEDFATYYCQQYYSNADFGQGTKVEIK
On to B21, for which the binding entry is listed as “binds”.

B22: MAdCAM Antibody Table 2 clone 46 (antibody, V domains shown)
VH: EVQLLESGGGLVQPGGSLRLSCAASGFSFSSYTMNWVRQAPGKGLEWVSFITSSSRTIYYADSVKGRFTISRDNSKNTLYLQMNSLRAEDTAVYYCARDRRGDYGDSWYFDLWGRGTLVTVSS
VL: EIVMTQSPATLSVSPGERATLSCRASQSVRNYLAWYQQKPGQAPRLLIYGASTRATGIPARFSGSGSGTEFTLTISSLQSEDFAVYYCQQYGSSPLTFGGGTKVEIK
With B22, the binding result is “binds”.
